{"source": "PubChem BioAssay AID504804 – Drosophila RNAi Screening Center – 2011", "screen": "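Knock-downs shielding fly cells from apoptosis caused by DNA damage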 (primary screen)", "cells": "Drosophila Kc cells", "knock-down reagent": "long dsRNA against Drosophila genes, 0.5 µg dsRNA per well", "time to read-out": "96 h (48 h knock-down, then 48 h drug)", "challenge": "doxorubicin 5 µg/ml for 48 h, added 48 h after dsRNA", "read-out": "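Luminescent ATP counts per replicate, not normalised, reflecting viable cells after 48 h dsRNA knock-down followed by 48 h of 5 µg/ml doxorubicin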", "direction": "raw ATP luminescence: higher = more viable cells, protection from doxorubicin", "rule for the call": "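Active when both duplicate wells lie at least 2 SD above the plate mean and protection is confirmed by rescreening and independent dsRNAs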", "note": "In all, the deposit lists about 19,000 reagents; this is a random part of those with a known target gene and a result. Of all reagents, 47 (0.25%) were called active. 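Signals are raw, not normalised; exact z-scores behind calls not deposited; actives needed confirmation, so some wells reaching 2 SD are inactive.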"}
{"gene": "CG1648", "amplicon": "DRSC06610", "raw ATP luminescence, replicate 1": 58697, "raw ATP luminescence, replicate 2": 50017, "Outcome": "inactive"}
{"gene": "CG14605", "amplicon": "DRSC12549", "raw ATP luminescence, replicate 1": 61863, "raw ATP luminescence, replicate 2": 62963, "Outcome": "inactive"}
{"gene": "CG9981", "amplicon": "DRSC20225", "raw ATP luminescence, replicate 1": 2.78e5, "raw ATP luminescence, replicate 2": 2.90e5, "Outcome": "inactive"}
{"gene": "Uro (Urate oxidase)", "amplicon": "DRSC03469", "raw ATP luminescence, replicate 1": 19030, "raw ATP luminescence, replicate 2": 23713, "Outcome": "inactive"}
{"gene": "CR10032 (pseudo)", "amplicon": "DRSC12499", "raw ATP luminescence, replicate 1": 61633, "raw ATP luminescence, replicate 2": 58813, "Outcome": "inactive"}
{"gene": "CG1371", "amplicon": "DRSC06409", "raw ATP luminescence, replicate 1": 88853, "raw ATP luminescence, replicate 2": 73260, "Outcome": "inactive"}
{"gene": "CG30398", "amplicon": "DRSC03891", "raw ATP luminescence, replicate 1": 57317, "raw ATP luminescence, replicate 2": 44543, "Outcome": "inactive"}
{"gene": "Su(P) (Suppressor of ref(2)P sterility)", "amplicon": "DRSC11291", "raw ATP luminescence, replicate 1": 60077, "raw ATP luminescence, replicate 2": 59057, "Outcome": "inactive"}
{"gene": "CG42588", "amplicon": "DRSC09820", "raw ATP luminescence, replicate 1": 75870, "raw ATP luminescence, replicate 2": 85600, "Outcome": "inactive"}
{"gene": "CG34284", "amplicon": "DRSC14773", "raw ATP luminescence, replicate 1": 39080, "raw ATP luminescence, replicate 2": 31220, "Outcome": "inactive"}
{"gene": "VhaAC45RP (VhaAC45-related protein)", "amplicon": "DRSC15423", "raw ATP luminescence, replicate 1": 1.48e5, "raw ATP luminescence, replicate 2": 1.66e5, "Outcome": "inactive"}
{"gene": "CG2533", "amplicon": "DRSC19855", "raw ATP luminescence, replicate 1": 3.86e5, "raw ATP luminescence, replicate 2": 3.90e5, "Outcome": "inactive"}
{"gene": "RpL18 (Ribosomal protein L18)", "amplicon": "DRSC11016", "raw ATP luminescence, replicate 1": 73580, "raw ATP luminescence, replicate 2": 65670, "Outcome": "inactive"}
{"gene": "CG32054", "amplicon": "DRSC10684", "raw ATP luminescence, replicate 1": 49507, "raw ATP luminescence, replicate 2": 70367, "Outcome": "inactive"}
{"gene": "CG1136", "amplicon": "DRSC08184", "raw ATP luminescence, replicate 1": 36700, "raw ATP luminescence, replicate 2": 41067, "Outcome": "inactive"}
{"gene": "CG13560", "amplicon": "DRSC04198", "raw ATP luminescence, replicate 1": 55340, "raw ATP luminescence, replicate 2": 48813, "Outcome": "inactive"}
{"gene": "lncRNA:CR42862 (long non-coding RNA:CR42862)", "amplicon": "DRSC08348", "raw ATP luminescence, replicate 1": 65530, "raw ATP luminescence, replicate 2": 88837, "Outcome": "inactive"}
{"gene": "Pc (Polycomb)", "amplicon": "DRSC11873", "raw ATP luminescence, replicate 1": 51730, "raw ATP luminescence, replicate 2": 45873, "Outcome": "inactive"}
{"gene": "CG7785", "amplicon": "DRSC16311", "raw ATP luminescence, replicate 1": 52450, "raw ATP luminescence, replicate 2": 55150, "Outcome": "inactive"}
{"gene": "CG11626", "amplicon": "DRSC14336", "raw ATP luminescence, replicate 1": 68180, "raw ATP luminescence, replicate 2": 76060, "Outcome": "inactive"}
{"gene": "CheB38a (Chemosensory protein B 38a)", "amplicon": "DRSC03205", "raw ATP luminescence, replicate 1": 57780, "raw ATP luminescence, replicate 2": 61983, "Outcome": "inactive"}
{"gene": "CG11898", "amplicon": "DRSC14432", "raw ATP luminescence, replicate 1": 33120, "raw ATP luminescence, replicate 2": 46110, "Outcome": "inactive"}
{"gene": "CG10486", "amplicon": "DRSC09735", "raw ATP luminescence, replicate 1": 58390, "raw ATP luminescence, replicate 2": 83947, "Outcome": "inactive"}
{"gene": "CG2182", "amplicon": "DRSC12308", "raw ATP luminescence, replicate 1": 73450, "raw ATP luminescence, replicate 2": 33067, "Outcome": "inactive"}
{"gene": "CG7183", "amplicon": "DRSC16210", "raw ATP luminescence, replicate 1": 38577, "raw ATP luminescence, replicate 2": 34373, "Outcome": "inactive"}
{"gene": "CG3224", "amplicon": "DRSC18295", "raw ATP luminescence, replicate 1": 36630, "raw ATP luminescence, replicate 2": 47200, "Outcome": "inactive"}
{"gene": "CG14667", "amplicon": "DRSC12253", "raw ATP luminescence, replicate 1": 54043, "raw ATP luminescence, replicate 2": 61587, "Outcome": "inactive"}
{"gene": "IscU (Iron-sulfur cluster assembly enzyme)", "amplicon": "DRSC16572", "raw ATP luminescence, replicate 1": 34530, "raw ATP luminescence, replicate 2": 39327, "Outcome": "inactive"}
{"gene": "dsx-c73A (doublesex cognate 73A)", "amplicon": "DRSC09435", "raw ATP luminescence, replicate 1": 89163, "raw ATP luminescence, replicate 2": 87300, "Outcome": "inactive"}
{"gene": "dsx-c73A (doublesex cognate 73A)", "amplicon": "DRSC09914", "raw ATP luminescence, replicate 1": 54520, "raw ATP luminescence, replicate 2": 53013, "Outcome": "inactive"}
{"gene": "dsx-c73A (doublesex cognate 73A)", "amplicon": "DRSC10429", "raw ATP luminescence, replicate 1": 75210, "raw ATP luminescence, replicate 2": 63893, "Outcome": "inactive"}
{"gene": "Plc21C (Phospholipase C at 21C)", "amplicon": "DRSC00773", "raw ATP luminescence, replicate 1": 1.03e5, "raw ATP luminescence, replicate 2": 82257, "Outcome": "inactive"}
{"gene": "CG5404", "amplicon": "DRSC15793", "raw ATP luminescence, replicate 1": 59810, "raw ATP luminescence, replicate 2": 51353, "Outcome": "inactive"}
{"gene": "CG4661", "amplicon": "DRSC19910", "raw ATP luminescence, replicate 1": 3.97e5, "raw ATP luminescence, replicate 2": 3.34e5, "Outcome": "inactive"}
{"gene": "Nazo", "amplicon": "DRSC14343", "raw ATP luminescence, replicate 1": 53633, "raw ATP luminescence, replicate 2": 56820, "Outcome": "inactive"}
{"gene": "TM4SF (Transmembrane 4 superfamily)", "amplicon": "DRSC04661", "raw ATP luminescence, replicate 1": 51847, "raw ATP luminescence, replicate 2": 45240, "Outcome": "inactive"}

Reformatted: 2 of the entries above.
gene,amplicon,"raw ATP luminescence, replicate 1","raw ATP luminescence, replicate 2",Outcome
dsx-c73A (doublesex cognate 73A),DRSC09435,89163,87300,inactive
dsx-c73A (doublesex cognate 73A),DRSC09914,54520,53013,inactive
